Laboratory results reported in patent publication EP1304122A2.
These are yes or no findings as the source states them, for the method shown. In cells and extracts the contact can be indirect. Some entries that bind do so weakly or less than the wild type.

Assays:
[1] = target: T1, V7 (leukocyte surface protein, also known as CD101) (UniProt Q93033); assay: co-immunoprecipitation from T cell lysate with anti-V7 murine antibody
T1 sequence (looked up): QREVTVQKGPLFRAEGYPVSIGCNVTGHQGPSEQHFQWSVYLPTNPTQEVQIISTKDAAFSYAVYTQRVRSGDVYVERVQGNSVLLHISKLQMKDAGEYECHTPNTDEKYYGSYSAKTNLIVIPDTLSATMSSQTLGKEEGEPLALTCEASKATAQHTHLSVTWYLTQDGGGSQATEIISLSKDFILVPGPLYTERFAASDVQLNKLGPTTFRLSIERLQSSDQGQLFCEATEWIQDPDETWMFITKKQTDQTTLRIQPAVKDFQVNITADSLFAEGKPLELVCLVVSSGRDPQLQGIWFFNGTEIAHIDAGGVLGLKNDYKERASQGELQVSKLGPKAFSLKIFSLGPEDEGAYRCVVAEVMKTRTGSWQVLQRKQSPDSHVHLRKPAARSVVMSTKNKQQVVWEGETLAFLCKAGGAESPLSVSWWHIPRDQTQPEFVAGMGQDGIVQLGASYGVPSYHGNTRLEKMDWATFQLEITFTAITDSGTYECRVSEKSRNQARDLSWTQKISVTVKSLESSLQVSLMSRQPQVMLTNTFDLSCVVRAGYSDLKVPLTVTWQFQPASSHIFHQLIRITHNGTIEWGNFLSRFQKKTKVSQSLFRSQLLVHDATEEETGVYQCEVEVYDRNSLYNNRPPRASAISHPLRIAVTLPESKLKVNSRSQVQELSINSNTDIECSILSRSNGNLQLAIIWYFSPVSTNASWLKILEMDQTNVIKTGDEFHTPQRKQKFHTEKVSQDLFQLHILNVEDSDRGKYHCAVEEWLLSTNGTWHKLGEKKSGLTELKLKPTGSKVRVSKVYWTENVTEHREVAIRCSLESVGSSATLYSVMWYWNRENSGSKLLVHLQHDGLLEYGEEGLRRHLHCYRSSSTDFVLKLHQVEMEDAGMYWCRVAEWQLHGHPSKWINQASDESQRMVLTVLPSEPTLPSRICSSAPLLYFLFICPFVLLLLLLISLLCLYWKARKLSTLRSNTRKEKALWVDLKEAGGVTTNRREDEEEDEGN

[2] = target: T1, V7 (leukocyte surface protein, also known as CD101); assay: co-immunoprecipitation from T cell lysate with anti-V7 murine monoclonal antibody and goat anti-mouse IgG

binding [1]: binds
binding [2]: binds
Substance: RAF-1 kinase (from UniProt P04049 1-648) (enzyme)
